Results published in paper PMC7450086.
These are yes or no findings as the source states them, for the method shown. In cells and extracts the contact can be indirect. Here binding means that the protein was enriched with, or labelled near, the bait; the list need not be complete. Sequences can lack the tags named with a protein.

T1: EGFP-Spn-F (Spindle-F) (Drosophila) (UniProt Q9V9Y9)
T1 sequence: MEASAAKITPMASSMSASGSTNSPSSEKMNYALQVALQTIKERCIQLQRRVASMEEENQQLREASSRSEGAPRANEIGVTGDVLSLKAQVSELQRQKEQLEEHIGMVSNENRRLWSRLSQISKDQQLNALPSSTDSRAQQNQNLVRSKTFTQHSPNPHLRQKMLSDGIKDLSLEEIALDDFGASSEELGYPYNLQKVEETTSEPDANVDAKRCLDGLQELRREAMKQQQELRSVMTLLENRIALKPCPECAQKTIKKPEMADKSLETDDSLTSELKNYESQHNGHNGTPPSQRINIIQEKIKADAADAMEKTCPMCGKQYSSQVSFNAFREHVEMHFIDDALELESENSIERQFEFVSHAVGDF

B1: Yolk protein 1 (protein, UniProt P02843 21-439)
chain: PNGRMDNSVNQALKPSQWLSGSQLEAIPALDDFTIERLENMNLERGAELLQQVYHLSQIHHNVEPNYVPSGIQVYVPKPNGDKTVAPLNEMIQRLKQKQNFGEDEVTIIVTGLPQTSETVKKATRKLVQAYMQRYNLQQQRQHGKNGNQDYQDQSNEQRKNQRTSSEEDYSEEVKNAKTQSGDIIVIDLGSKLNTYERYAMLDIEKTGAKIGKWIVQMVNELDMPFDTIHLIGQNVGAHVAGAAAQEFTRLTGHKLRRVTGLDPSKIVAKSKNTLTGLARGDAEFVDAIHTSVYGMGTPIRSGDVDFYPNGPAAGVPGASNVVEAAMRATRYFAESVRPGNERSFPAVPANSLQQYKQNDGFGKRAYMGIDTAHDLEGDYILQVNPKSPFGRNAPAQKQSSYHGVHQAWNTNQDSKDYQ
B2: I-kappaB kinase ε (Ik2) (enzyme, UniProt Q7KJQ4 1-711)
chain: MSFLRGSVSYVWCTTSVLGKGATGSVFQGVNKITGESVAVKTFNPYSHMRPADVQMREFEALKKVNHENIVKLLAIEEDQEGRGKVIVMELCTGGSLFNILDDPENSYGLPEHEFLLVLEHLCAGMKHLRDNKLVHRDLKPGNIMKFISEDGQTIYKLTDFGAARELEDNQPFASLYGTEEYLHPDLYERAVLRKSIQRSFTANVDLWSIGVTLYHVATGNLPFRPFGGRKNRETMHQITTKKASGVISGTQLSENGPIEWSTTLPPHAHLSQGLKTLVTPLLAGLLEENREKTWSFDRFFHEVTLILRKRVIHVFFTNRTSSVEVFLEPDEQIDNFRERIFLQTEVPLEKQILLFNNEHLEKKVTPRTIDQPIFLYSNDDNNVQLPQQLDLPKFPVFPPNVSVENDASLAKSACSVGHECKRRVDIFTSMDILIKKGVEHFIEMLVTTITLLLKKTESFDNLLSTVIDYADVVHSMARVTKGDQEIKTLLTALENVKSDFDGAADVISQMHKHFVIDDELNDQWTSSMHGKKCPCKTRASAQAKYLVERLRDSWQHLLRDRATRTLTYNDEQFHALEKIKVDHNGKRIKALLLDNVNPTVAQIAECLADWYKLAQTVYLKTQILEKDVRDCERKLNGIRDELYHVKSELKLDVDTKTINNNNQLAKIEERNRLRVMQQQQQEVMAVMRTNSDIISLLSKLGITNGSLESS
B3: Triosephosphate isomerase (enzyme, UniProt P29613 1-247)
chain: MSRKFCVGGNWKMNGDQKSIAEIAKTLSSAALDPNTEVVIGCPAIYLMYARNLLPCELGLAGQNAYKVAKGAFTGEISPAMLKDIGADWVILGHSERRAIFGESDALIAEKAEHALAEGLKVIACIGETLEEREAGKTNEVVARQMCAYAQKIKDWKNVVVAYEPVWAIGTGQTATPDQAQEVHAFLRQWLSDNISKEVSASLRIQYGGSVTAANAKELAKKPDIDGFLVGGASLKPEFVDIINARQ
B4: Hook (protein, UniProt Q24185 1-679)
chain: MSAPKNEMYYSLLEWFKTLNLNAPHADAESLADGVALAQALNQFAPESFTDAWLSKIKASAVGSNWRLRMSNLKKVTQSVYDYYSDVLNYSLSDFSKPDLQRIAEKCDLGELERLLQLVLGCAVNCAEKQSYITEIMCLEEELQANIMRALQELEATRQASTPEGGVASSLSRGSRTGLLDSKAVQEDRDALAQKCFETEKKMLLLIDEKTNLQQELHKLQQEFARLEQHSTVIGDDGVSLGPVQTGSVRYNELRRQLDLLKEELLQSEGAREDLKIKAQQQDTDLLHMQMRIEELMKSSAEVTTLKDEVDVLRESNDKLKICEAQLDTYKKKLEDYNDLKKQVKILEERSADYVQQNAQFEEDAKRYANTKGQVELFKKEIQDLHAKLDAESSKNVKLEFDNKNLESKNLALQRAKDSLLKERDNLREAVDELKCGQLSSNTALTGTTVSRELQPSATVEKLQRLEAENKALREGQGGQTALAQLLDDANKRCENLREQLKTANERILSLSHASQSDDPILKESEFGKQIKQLMELNEQKTLQLEEAVTQSTSLQCKVTQLETNLSAREQEILVYDAKYRKCVEKAKEVIKSIDPRIASALDASVLEKSADLVEEEPKPKMSVMEEQLMTSAFYRLGVNAQRDAIDSKLAILMGSGQTFLARQRQSAPRKSLSAMKSK

What follows are binders tested against T1, EGFP-Spn-F (Spindle-F) (Drosophila) (assay: affinity purification with mass spectrometry; GFP-Spn-F (Actin-Gal4 driven) precipitated from adult fly head lysates with GFP magnetic beads (Chromoteck) overnight at 4 °C; lysis buffer 50 mM Tris-HCl pH 7.5, 150 mM NaCl, 1% NP-40, 0.5% sodium deoxycholate; washes 10 mM Tris-HCl pH 8.0, 150 mM NaCl, 0.1% NP-40; GFP-only flies as control; LC-MS/MS).

| binding | Binder |
| --- | --- |
| binds | B1 |
| binds | B2 |
| binds | B3 |
| binds | B4 |
